Record: PubChem BioAssay AID504774 (Drosophila RNAi Screening Center, 2011)
The deposit covers about 23,000 reagents; this is a random part of those with a known target gene and a result. 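Values are quantile-normalised luminescence on an arbitrary scale; higher means more cells surviving MMS.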 Reagents against one gene are numbered here. A plus sign joins genes that one reagent is predicted to hit. Reagent sequences are not shown.

Test: 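Knock-downs that shift viability of MMS-exposed cells relative to untreated ones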 (primary screen)
Cell system: Drosophila Kc167 cells
Reagent: long dsRNA against Drosophila genes, about 0.25 µg dsRNA per well
Duration: about 6 days: 3 days knock-down, then 3 days with or without MMS
Conditions: methyl methanesulphonate 0.004% (w/v) for 3 days after knock-down
Measurement: 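Viability in wells given MMS, read as ATP luminescence, normalised by quantiles plate by plate and averaged across replicates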
Scale: mean viability with MMS and viability with MMS: higher = more surviving cells after MMS

gene | reagent | mean viability with MMS | viability with MMS, replicate 1 | viability with MMS, replicate 2
TpnC4 (Troponin C isoform 4) | 1 | 3.46e6 | 3.86e6 | 3.96e6
CG12111 | 1 | 3.52e6 | 4.04e6 | 3.96e6
FAM21 (Family with sequence similarity 21) | 1 | 3.54e6 | 4.00e6 | 4.03e6
Asx (Additional sex combs) | 1 | 2.80e6 | 3.26e6 | 3.16e6
SkpF + CG5357 (retired record) | 1 | 3.46e6 | 3.88e6 | 3.96e6
CG15431 | 1 | 3.56e6 | 4.00e6 | 4.05e6
CG12093 | 1 | 3.37e6 | 3.80e6 | 3.86e6
CG15212 | 1 | 3.58e6 | 4.14e6 | 4.01e6
CG12219 | 1 | 3.55e6 | 4.00e6 | 4.08e6
CG8578 | 1 | 3.47e6 | 4.43e6 | 3.93e6
CG7841 | 1 | 3.73e6 | 4.13e6 | 4.26e6
CG4945 | 1 | 3.56e6 | 3.98e6 | 4.08e6
CG15443 | 1 | 3.69e6 | 4.22e6 | 4.08e6
CG6893 | 1 | 3.39e6 | 3.78e6 | 3.87e6
CG17658 | 1 | 3.42e6 | 3.74e6 | 3.99e6
CG15784 | 1 | 3.59e6 | 3.91e6 | 4.24e6
CG30259 | 1 | 3.62e6 | 4.04e6 | 4.17e6
CG30259 | 2 | 3.80e6 | 4.05e6 | 4.50e6
CG32487 | 1 | 3.43e6 | 3.87e6 | 3.95e6
Rim (Rab3 interacting molecule) | 1 | 3.76e6 | 4.10e6 | 4.43e6
Rim (Rab3 interacting molecule) | 2 | 3.07e6 | 3.61e6 | 3.62e6
Rim (Rab3 interacting molecule) | 3 | 3.76e6 | 4.17e6 | 4.28e6
Rim (Rab3 interacting molecule) | 4 | 3.67e6 | 4.16e6 | 4.18e6
Rim (Rab3 interacting molecule) | 5 | 3.55e6 | 4.02e6 | 4.01e6
CG3306 | 1 | 3.50e6 | 3.98e6 | 3.96e6
Ino80 (INO80 complex subunit) | 1 | 3.75e6 | 4.10e6 | 4.41e6
Ino80 (INO80 complex subunit) | 2 | 3.72e6 | 4.28e6 | 4.15e6
Ino80 (INO80 complex subunit) | 3 | 3.76e6 | 3.95e6 | 4.57e6
CG12716 | 1 | 3.65e6 | 4.08e6 | 4.18e6
CG15459 | 1 | 3.63e6 | 4.14e6 | 4.04e6
CG15459 | 2 | 3.53e6 | 4.10e6 | 3.93e6
pip (pipe) | 1 | 3.62e6 | 4.19e6 | 4.01e6
CG10164 | 1 | 1.76e6 | 4.06e6 | 3.80e6
Cam (Calmodulin) | 1 | 3.69e6 | 4.02e6 | 4.01e6
Cam (Calmodulin) | 2 | 3.69e6 | 4.58e6 | 3.92e6
Pura (Puratrophin-1-like) | 1 | 3.39e6 | 3.87e6 | 3.81e6
Pura (Puratrophin-1-like) | 2 | 3.53e6 | 4.02e6 | 4.00e6
Pura (Puratrophin-1-like) | 3 | 3.52e6 | 3.97e6 | 4.03e6
Pura (Puratrophin-1-like) | 4 | 3.49e6 | 3.98e6 | 3.94e6
Pura (Puratrophin-1-like) | 5 | 3.66e6 | 4.13e6 | 4.19e6
CG14662 | 1 | 3.28e6 | 3.71e6 | 3.71e6
CG9106 | 1 | 3.69e6 | 4.14e6 | 4.22e6
CG4286 | 1 | 3.63e6 | 4.23e6 | 4.00e6
Tpl94D (Transition protein-like 94D) | 1 | 3.42e6 | 3.76e6 | 3.98e6
Snx17 (Sorting nexin 17) | 1 | 3.74e6 | 4.56e6 | 3.97e6
mkg-p + Tpt | 1 | 3.57e6 | 3.99e6 | 4.12e6
CG5662 | 1 | 1.84e6 | 4.08e6 | 3.94e6
CG17816 | 1 | 3.58e6 | 4.20e6 | 3.95e6
CG9205 | 1 | 3.51e6 | 4.02e6 | 3.93e6
CG4287 | 1 | 3.58e6 | 4.01e6 | 4.09e6
kel (kelch) | 1 | 3.50e6 | 3.99e6 | 3.95e6
Ir94g (Ionotropic receptor 94g) | 1 | 3.62e6 | 4.15e6 | 4.05e6
CG13579 | 1 | 3.47e6 | 3.90e6 | 3.95e6
CG14377 | 1 | 3.64e6 | 4.16e6 | 4.12e6
DJ-1alpha | 1 | 3.67e6 | 4.02e6 | 4.34e6
CG15695 | 1 | 3.60e6 | 4.11e6 | 4.05e6
Cln3 | 1 | 3.52e6 | 3.96e6 | 4.02e6
CG42724 | 1 | 3.14e6 | 3.65e6 | 3.61e6
CG42724 | 2 | 2.55e6 | 3.69e6 | 3.69e6
trbd (trabid) | 1 | 3.49e6 | 3.91e6 | 3.99e6
Grl62a (Gustatory receptor-like 62a) | 1 | 3.70e6 | 4.23e6 | 4.11e6
Spag1 (Spag1 axonemal dynein assembly factor) | 1 | 3.60e6 | 4.10e6 | 4.07e6
CG10834 | 1 | 3.55e6 | 3.99e6 | 4.05e6
CG16719 | 1 | 3.48e6 | 4.02e6 | 3.88e6
CG33777 | 1 | 3.47e6 | 4.00e6 | 3.85e6
CG17472 | 1 | 3.63e6 | 4.11e6 | 4.13e6
Or33a (Odorant receptor 33a) | 1 | 3.56e6 | 3.99e6 | 4.08e6
gogo (golden goal) | 1 | 3.43e6 | 3.85e6 | 3.89e6
gogo (golden goal) | 2 | 3.63e6 | 4.12e6 | 4.10e6

Entries above whose target name begins with G or g (3):
gene | reagent | mean viability with MMS | viability with MMS, replicate 1 | viability with MMS, replicate 2
Grl62a (Gustatory receptor-like 62a) | 1 | 3.70e6 | 4.23e6 | 4.11e6
gogo (golden goal) | 1 | 3.43e6 | 3.85e6 | 3.89e6
gogo (golden goal) | 2 | 3.63e6 | 4.12e6 | 4.10e6
